Source: PubChem BioAssay AID624297 (National Center for Advancing Translational Sciences (NCATS), 2012)
Out of some 340,000 compounds screened, about 6,200 (1.8%) were called active. The shares of active, inactive and inconclusive entries below differ from those in the screen. Calls follow the shape of the dose curve; as a rule, active = well fitted activation curve with a large enough effect; inconclusive = small, poorly fitted or top-dose-only effect; inactive = no such curve, though single readings can be large or run the other way. Potencies beside an inconclusive call are fits to weak or partial responses and may not hold up.

Test: A quantitative high throughput screen for small molecules that induce DNA re-replication in SW480 colon adenocarcinoma cells. Also: nearly all actives have a fitted effect of over 55% in size.
Conditions: Hoechst DNA content imaging, 48 h; series mostly up to 46.1 µM
Summary of the method: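 First, 250 cells per well were seeded. Next, compound or vehicle (23 nL) was pinned in, plates sat 48 hr at 37 C. Finally Hoechst was added for 40 min before fluorescence scanning.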
Potency is read from the fitted curve at half-maximal effect.

| Structure (SMILES) | Potency |
| --- | --- |
| COc1ccc(-c2nnc(NC(=O)c3ccc(S(=O)(=O)N4CCc5ccccc5C4)cc3)o2)cc1 | inconclusive: 1.26 µM [activator, partial curve] |
| Nc1c(C(=O)c2ccccc2)oc2ccc(Br)cc12 | inconclusive: 32.6 µM [activator, partial curve, poor fit] |
| CN1CCN(CC(=O)N2c3ccc(S(=O)(=O)NCCNC(=O)OC(C)(C)C)cc3C(=O)Nc3cccnc32)CC1 | inconclusive: 29.1 µM [activator, single point] |
| CCc1nnc(NC(=O)CSc2nnc(-c3ccoc3C)n2-c2cccc(C)c2)s1 | inconclusive: 4.11 µM [activator, partial curve, poor fit] |
| CCOc1ccc(NS(=O)(=O)c2ccc(OCC)c3ncccc23)cc1 | active: 20.6 µM |
| CCN(CC)S(=O)(=O)c1cccc(-c2nnc(SCC(=O)c3cc(C)n(C)c3C)o2)c1 | inactive |
| O=C(O)C1CCCN1S(=O)(=O)c1ccc2c(c1)CCC2 (configuration not stated) | inconclusive: 29.1 µM [activator, single point] |
| COc1cc(CNCCN2CCOCC2)ccc1OCc1ccc(Cl)cc1Cl | inconclusive: 29.1 µM [activator, single point] |
| C[C@]12c3[nH]c4ccc(Cl)cc4c3CCN1C(=O)[C@@H](CC(=O)NCCC1=CCCCC1)C[C@@H]2C(=O)N1CCOCC1 | inactive |
| CC1=CC(C)(C)N(C(=O)CN2C(=O)c3ccccc3C2=O)c2ccccc21 | inactive |
| COCCNC(=S)N1CCc2cc(OC)c(OC)cc2C1COc1ccc(C(C)C)cc1 (configuration not stated) | inconclusive: 32.6 µM [activator, partial curve, poor fit] |
| CC(NC(=O)NCC1CCCO1)(C(F)(F)F)C(F)(F)F (configuration not stated) | inactive |
| O=C(CNCCC1=CCCCC1)Nc1ccc(N2CCCCCC2)cc1 | inconclusive: 29.1 µM [activator, single point] |
| CCc1ccc(-n2nc3cc(C)c(N)cc3n2)cc1 | inconclusive: 11.6 µM [activator, partial curve, poor fit] |
| CC(C)(C)Nc1ncnc2sc(-c3ccccc3)cc12 | inconclusive: 2.91 µM [activator, full curve, poor fit] |
| COC(=O)c1cccc(-c2ccc(C(c3c(C)[nH][nH]c3=O)c3c(C)[nH][nH]c3=O)o2)c1 | inconclusive: 29.1 µM [activator, single point] |
| Cc1cc(C)c2sc(N(CCN(C)C)C(=O)c3c(F)cccc3F)nc2c1 | inconclusive: 29.1 µM [activator, single point] |
| C/C(=N\NC(=O)c1nnn(-c2nonc2N)c1CN(C)c1ccccc1)c1cccs1 | inconclusive: 23.1 µM [activator, single point] |
| Cc1ccc(S(=O)(=O)CCC(=O)Nc2nc(-c3cccnc3)cs2)cc1 | inconclusive: 3.66 µM [activator, full curve] |
| CC1CCN(S(=O)(=O)c2ccc(C(=O)Nc3nnc(C4CC4)o3)cc2)CC1 | active: 13 µM |
| O=C(CSc1nc(N2CCOCC2)nc(N2CCOCC2)n1)Nc1cccc(C(F)(F)F)c1 | inactive |
| COc1ccccc1CN(Cc1nc2ccccc2c(=O)[nH]1)S(=O)(=O)c1ccc2ccccc2c1 | inconclusive: 29.1 µM [activator, single point] |
| CC1=CC(C)(C)Nc2ccc(OC(=O)CN3C(=O)C4CCCCC4C3=O)cc21 (configuration not stated) | active: 20.6 µM |

Random excerpt: two entries already listed.

| Structure (SMILES) | Potency |
| --- | --- |
| C[C@]12c3[nH]c4ccc(Cl)cc4c3CCN1C(=O)[C@@H](CC(=O)NCCC1=CCCCC1)C[C@@H]2C(=O)N1CCOCC1 | inactive |
| CCc1ccc(-n2nc3cc(C)c(N)cc3n2)cc1 | inconclusive: 11.6 µM [activator, partial curve, poor fit] |

The listing continues:

| Structure (SMILES) | Potency |
| --- | --- |
| COc1ccc(/C=N/Nc2nonc2N)cc1OC | inactive |
| Cc1ccc(C(=O)N/C(=C\c2ccco2)C(=O)N2CC(C)OC(C)C2)cc1C (configuration not stated) | inactive |
| Cc1ccc(N2C(N)=C(C#N)C(c3cccnc3)C3=C2CC(C)(C)CC3=O)cc1 (configuration not stated) | inconclusive: 20.6 µM [activator, single point] |
| CCc1ccc(N=C2NC(=O)/C(=C/c3cc(OC)c(OC)c(OC)c3)S2)cc1 | inconclusive: 23.1 µM [activator, single point] |
| CCOC(=O)N1CCN(C(=O)CN(c2ccccc2OC)S(=O)(=O)c2ccc(OC)cc2)CC1 | inconclusive: 4.61 µM [activator, full curve, poor fit] |
| CCCc1cc(C(N)=O)c(NC(=O)c2ccco2)s1 | inconclusive: 23.1 µM [activator, single point] |
| O=C(CSc1nnc(-c2cccnc2)s1)Nc1ccccc1 | inconclusive: 23.1 µM [activator, single point] |
| CN(C)CCCN1C(=O)c2cccc3cccc(c23)C1=O | inconclusive: 20.6 µM [activator, partial curve, poor fit] |
| O=C(Cc1cccs1)NCc1cccc(F)c1 | inactive |
| COC(=O)c1scc(C)c1S(=O)(=O)Nc1ccc(C)cc1 | inconclusive: 3.66 µM [activator, single point] |
| Cc1ccc(-n2nnnc2SCC(=O)Nc2cccnc2Cl)cc1 | inconclusive: 32.6 µM [activator, partial curve, poor fit] |
| COc1ccc(/C=N/NC(=S)Nc2ccccc2[N+](=O)[O-])cc1O | inconclusive: 29.1 µM [activator, single point] |
| CCCCOc1ccc(NC(=O)CSc2cccc3cccnc23)cc1 | inconclusive: 29.1 µM [activator, single point] |
| Cc1ccnc(NC(=O)c2ccccc2NC(=O)c2ccc(Cl)cc2Cl)c1 | active: 4.61 µM |
| CCCCn1c(N)c(N(CCC(C)C)C(=O)c2[nH]c(C)c(C(=O)OCC)c2C)c(=O)[nH]c1=O | inconclusive: 14.6 µM [activator, single point] |
| O=C(Nc1ccc(Cl)c(S(=O)(=O)N2CCCCC2)c1)c1cccnc1 | inconclusive: 9.2 µM [activator, partial curve, poor fit] |
| CCOc1ncccc1C(=O)N1CCN(C(c2ccccc2)c2ccccc2)CC1 | inactive |
| CCS(=O)(=O)c1nc(S(=O)(=O)c2ccc(C)cc2)c(NCCCn2ccnc2)s1 | inconclusive: 0.103 µM [activator, full curve, poor fit] |
| Cn1ccnc1SCC(=O)c1ccc2ccccc2c1 | inconclusive: 0.731 µM [activator, partial curve, poor fit] |
| CCCC(=O)Nc1c(C(=O)OCC)[nH]c2ccccc12 | inconclusive: 0.103 µM [activator, full curve, poor fit] |
| Cc1nc(NC(=O)c2ccccc2)sc1-c1csc(Nc2ccc(C(=O)O)cc2)n1 | inconclusive: 29.1 µM [activator, partial curve, poor fit] |
| Cc1ccccc1OCCC(=O)N1CCN(S(=O)(=O)c2ccc(F)cc2)CC1 | inactive |
| Cc1cccc(OCCNc2cc(N3CCN(C)CC3)ccc2[N+](=O)[O-])c1 | inconclusive: 29.1 µM [activator, single point] |

| Structure (SMILES) | Potency |
| --- | --- |
| COc1ccccc1-c1noc(-c2cc(OC)c(OC)c(OC)c2)n1 | inconclusive: 23.1 µM [activator, partial curve, poor fit] |
| Cc1ccc(/C=C/C(=O)c2ccc(O)cc2)cc1 | active: 18.4 µM |
| O=C(COC(=O)c1ccc(O)cc1)NCC1CCCO1 (configuration not stated) | inconclusive: 2.91 µM [activator, partial curve, poor fit] |
| CCOC(=O)c1c(C)[nH]c(C)c1C(=O)COC(=O)/C=C/c1ccc(OC(F)F)cc1 | inconclusive: 29.1 µM [activator, partial curve, poor fit] |
| COc1ccc(C(C)NCCC(c2ccc(OC(C)C)cc2)c2ccccc2OC)cc1 (configuration not stated) | inconclusive: 23.1 µM [activator, single point] |
| OCCNCc1cc(Br)ccc1OCc1ccc(Cl)cc1 | inactive |
| Nn1c(SCC(=O)Nc2ccc3c(c2)OCCO3)nncc1=O | inactive |
| CCCCN(CCCC)S(=O)(=O)c1ccc2oc(C(=O)N3CCOCC3)c(C)c2c1 | inactive |
| CC1CCCN(C2(O)C(=O)Nc3c(C(F)(F)F)cccc32)C1 (configuration not stated) | inconclusive: 5.8 µM [activator, partial curve, poor fit] |
| CC1Cc2ccccc2N1CC(=O)Nc1ccc(S(=O)(=O)N(C)C)cc1 (configuration not stated) | inconclusive: 29.1 µM [activator, single point] |
| O=C(NCC(=O)N1CCCCCCC1)c1cccc([N+](=O)[O-])c1 | inactive |
| COc1ccc(OC)c(/C=N\Nc2nccs2)c1 | inactive |
| CC(/C=N/n1c(C2CCCCC2)n[nH]c1=S)=C\c1ccccc1 | inconclusive: 23.1 µM [activator, single point] |
| Cc1c(/C=C/C(=O)c2ccccc2O)cnn1C | inactive |
| Cc1oc2ccc(OS(C)(=O)=O)cc2c1C(=O)OC(C)C | inactive |
| CC(C)C[C@H](NC(=O)c1[nH]cnc1C(=O)Nc1ccc(Cl)cc1)C(=O)OC(C)(C)C | inconclusive: 0.0731 µM [activator, partial curve, poor fit] |
| CNc1ccc(Br)cc(C(=O)/C=C/c2cccc(OC)c2)c1=O | inconclusive: 23.1 µM [activator, single point] |
| CC1CCCCN1S(=O)(=O)c1ccc(NC(=O)c2ccco2)cc1 (configuration not stated) | inactive |
| Cc1ccc2c(c1)C1C[N+](C)(CC(=O)Nc3ccccc3Cl)CCC1N2C(=O)c1ccccc1Cl (configuration not stated) | inactive |
| CC(Oc1ccc2oc3ccccc3c2c1)C(=O)NC12CC3CC(CC(C3)C1)C2 (configuration not stated) | inconclusive: 29.1 µM [activator, single point] |
| O=C(c1ccc(F)cc1)N1CCCCC(S(=O)(=O)c2ccccc2)C1=O (configuration not stated) | inconclusive: 1.16 µM [activator, partial curve, poor fit] |
